The text below walks through data of paper PMC3401106.

For the experiment, the target named is A. thaliana leucine zipper bZIP63 fused to YFPN and YFPC (Arabidopsis thaliana) (UniProt B9DGI8). Nature of the experiment: split reporter; BiFC in A. thaliana mesophyll protoplasts; fusions to YFPN (pUC-SPYNE) and YFPC (pUC-SPYCE) co-transfected; 16 h in the dark at 22 C; confocal microscopy.

These are yes or no findings as the source states them, for the method shown. Binding seen in cells or lysates may run through a third protein. Some entries that bind do so weakly or less than the wild type. Sequences can lack the tags named with a protein.

B1: A. thaliana leucine zipper bZIP63 fused to YFPN and YFPC (protein, UniProt B9DGI8 1-314)
chain: MEKVFSDEEISGNHHWSVNGMTSLNRSASEWAFNRFIQESSAAADDGESTTACGVSVSSPPNVPVDSEEYRAFLKSKLNLACAAVAMKRGTFIKPQDTSGRSDNGGANESEQASLASSKATPMMSSAITSGSELSGDEEEADGETNMNPTNVKRVKRMLSNRESARRSRRRKQAHLSELETQVSQLRVENSKLMKGLTDVTQTFNDASVENRVLKANIETLRAKVKMAEETVKRLTGFNPMFHNMPQIVSTVSLPSETSNSPDTTSSQVTTPEIISSGNKGKALIGCKMNRTASMRRVESLEHLQKRIRSVGDQ
Consider B1, for which the binding entry is recorded as “binds”.
